Experimental data taken from PubChem BioAssay AID2551 (National Center for Advancing Translational Sciences (NCATS), 2010).
Hit rate of the full screen: of about 310,000 compounds, about 17,000 (5.5%) were called active. This list was built around the results that the source calls inconclusive (neither active nor inactive); the mix of calls is not that of the screen. Calls follow the shape of the dose curve; as a rule, active = well fitted inhibition curve with a large enough effect; inconclusive = small, poorly fitted or top-dose-only effect, or effect the other way; inactive = no such curve, though single readings can be large or run the other way. A potency beside an inconclusive call is a rough fit, not a confirmed value.

Chains of the proteins cited; added tags and fusions are not shown. Lines headed by an entry give the natural chain unless they say otherwise; changes in a name come on top.
UniProt P51450: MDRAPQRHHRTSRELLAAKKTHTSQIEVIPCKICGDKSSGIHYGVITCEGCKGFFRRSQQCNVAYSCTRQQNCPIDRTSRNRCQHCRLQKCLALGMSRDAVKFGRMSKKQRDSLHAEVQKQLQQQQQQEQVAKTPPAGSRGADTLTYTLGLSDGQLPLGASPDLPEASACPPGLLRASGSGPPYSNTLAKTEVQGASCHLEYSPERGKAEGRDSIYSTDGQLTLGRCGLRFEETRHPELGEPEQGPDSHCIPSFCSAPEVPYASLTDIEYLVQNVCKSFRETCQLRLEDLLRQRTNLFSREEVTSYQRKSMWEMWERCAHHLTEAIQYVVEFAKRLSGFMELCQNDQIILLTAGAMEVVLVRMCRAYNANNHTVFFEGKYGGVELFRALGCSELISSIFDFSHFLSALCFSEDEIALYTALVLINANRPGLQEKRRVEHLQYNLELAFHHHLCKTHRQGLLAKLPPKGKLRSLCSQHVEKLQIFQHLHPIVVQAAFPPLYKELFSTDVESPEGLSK

These compounds were tested against Nuclear receptor ROR-gamma (Mus musculus) (UniProt P51450) (assay: qHTS for inhibitors of ROR gamma transcriptional activity). Details: Drosophila S2 Gal4-RORgamma UAS-luciferase reporter, 20 h; series mostly up to 53.6 µM.
Outline: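 Compounds are pin-transferred onto Drosophila Schneider cells expressing a copper-inducible Gal4–ROR gamma transactivation domain fusion. After 1 hr, copper sulfate is added to 700 uM final; luciferase is read 20 hr later.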
Also: nearly all actives have a fitted effect of over 60% in size.
Potency is read from the fitted curve at half-maximal effect.

Potency, inactive:
CC(C)CC(=O)Nc1ccccc1-c1nnn(CC(=O)N2CCc3ccccc3C2)n1
Cc1nc2ccc([N+](=O)[O-])cc2c(=O)n1Cc1ccccc1Br
Fc1ccc(OCCCCCN2CCCC2)cc1
CCOC(=O)N1CCN(C(=O)Cn2nc(C)n3nc(-c4ccc(OC)cc4)cc3c2=O)CC1
O=S(=O)(NCc1ccc2c(c1)OCO2)c1cccc(F)c1
CCC(C)NC(=O)C1c2cc(OC)c(OC)cc2C(=O)N(C)C1c1ccc(OC)cc1 (centres undefined)
CCN1CCN(CC(=O)Nc2nc3ccccc3s2)CC1
CSCC[C@H](NC(=O)c1ccc(NC[C@@H](N)CS)cc1-c1ccccc1)C(=O)O
CCN(CC(=O)NCc1ccc(F)cc1)C(=O)C1CC1C (centres undefined)
CCOC(=O)N1CCN(C(=O)CCCn2nnnc2CN2CCC(C)CC2)CC1
O=C(Nc1ccccc1)N1CCn2c1nc1ccccc12
CCN(CC)S(=O)(=O)c1ccc(OCC(=O)NCc2ccco2)cc1
COc1ccc(/C(O)=C/Sc2nnc(Cc3ccccc3)o2)cc1
CN1CCN(c2ncc3nc(CCc4ccccc4)c(=O)n(Cc4cccs4)c3n2)CC1
O=C(COc1ccc(S(=O)(=O)N2CCOCC2)cc1Cl)NCCCn1ccnc1
CCOC(=O)CSc1cc(-c2ccccc2)nc2ncnn12
COc1ccc(/C=N/N(Cc2ccccc2)c2ccccc2)cc1O
Cc1ccccc1CSCc1nc(N)nc(Nc2ccccc2C)n1
Cc1ccc(CN2C(=O)CCC2C(=O)NCCc2ccccc2)cc1 (centres undefined)
O=C(NN=C1CCCC1)c1n[nH]c2c1CCC2

Potency, active:
CC(=O)Oc1ccc(/C=C2\C=C(c3ccc(C)cc3)OC2=O)cc1 0.447 µM
Fc1ccc2nc(Nc3nc4cc5c(cc4s3)OCCO5)sc2c1 11.2 µM
Cc1cc(C(=O)N2CCN(S(=O)(=O)c3ccccc3F)CC2)c(C)o1 12.6 µM
C/C(=N\NC(=O)c1ccc(C)cc1)C1C(=O)c2ccccc2C1=O 0.891 µM
Fc1cccc(NC(=S)N2CCCCC2)c1 12.6 µM
COc1cc(CCCN2C(=S)NC[C@@H]2Cc2ccccc2)cc(OC)c1OC 10 µM
CCC(NC(=S)NCc1ccc(F)cc1)c1ccc(C)cc1 (centres undefined) 2.82 µM
CCCCNC(=S)N/N=C/c1cccc(OCC)c1O 4.47 µM
CCNC(=S)NNC(=O)c1cc(-c2ccc(OC)cc2)nc2ccccc12 1.41 µM
CC1CN(S(=O)(=O)c2ccc(C(=O)Nc3nnc(-c4ccco4)o3)cc2)CC(C)O1 (centres undefined) 1 µM
CCN(CC)c1ccc(/C=N/NC(=S)NCc2ccco2)cc1 1.78 µM
CCCCOc1ccc(CSCCN)cc1Cl 1.26 µM
Cc1cc(C)n(CC(=O)n2nc(C)cc2C)n1 0.316 µM
S=c1[nH]nc(COc2ccc3c(c2)OCO3)n1-c1ccccc1 3.55 µM

Potency, inconclusive:
Cc1ccc(C(=O)NC2c3ccccc3-c3ccccc32)cc1 12.6 µM [inhibitor, single point]
Cc1c(C2CC(=O)N(c3ccccc3)C2=O)[nH]n(-c2ccccc2)c1=O (centres undefined) 1.78 µM [inhibitor, partial curve]
Cc1cc(F)ccc1NCC(=O)Nc1ccccc1Br 0.158 µM [activator, full curve, poor fit]
CCOc1ccc(Oc2cc(NC(=O)c3ccco3)cc([N+](=O)[O-])c2)cc1 35.5 µM [inhibitor, single point]
CN(C)S(=O)(=O)c1cc(NC(=O)COC(=O)Cc2cccc3ccccc23)ccc1Cl 20 µM [activator, single point]
C/C(=N\Nc1nncc2ccccc12)c1ccc(O)cc1 11.2 µM [inhibitor, single point]
O=C1/C(=C\c2cc(Cl)c(O)c(Cl)c2)SC(=S)N1Cc1ccccc1 25.1 µM [inhibitor, single point]
O=C1/C(=C/c2ccccc2)CCCc2ccccc21 15.8 µM [activator, single point]
CCN(CC)C(=O)N1c2ccccc2Sc2ccccc21 25.1 µM [activator, single point]
O=C1Nc2ccccc2CCC1Sc1nnc(-c2ccc(Cl)cc2)s1 (centres undefined) 12.6 µM [activator, partial curve, poor fit]
COc1ccccc1/C=N/N1C(=O)C(CC(=O)Nc2ccc([N+](=O)[O-])cc2OC)SC1=Nc1cccc(C)c1C (centres undefined) 35.5 µM [inhibitor, single point]
COc1ccccc1OCCN1CSC(=S)N(C)C1 35.5 µM [inhibitor, single point]
CSc1nc(N)nc(SCCS(=O)(=O)c2ccc(Cl)cc2)c1C#N 11.2 µM [activator, partial curve]
COc1ccc(CC(=O)NCCS(=O)(=O)N2CCN(c3ccc(F)cc3)CC2)cc1OC 31.6 µM [activator, single point]
O=C(NCCc1c[nH]c2ccccc12)C(=O)NCC1OCCCN1S(=O)(=O)c1cccs1 (centres undefined) 35.5 µM [activator, single point]
CCN=C1S/C(=C\c2ccc(N3CCOCC3)cc2C)C(=O)N1CC 4.47 µM [activator, single point]
COC(=O)c1ccc(NC(=O)c2ccccc2NS(=O)(=O)c2ccccc2)cc1 35.5 µM [inhibitor, single point]
CC(=O)N1CCc2cc(S(=O)(=O)CCC(=O)N3CCN(C(=O)c4ccco4)CC3)ccc21 2.51 µM [activator, full curve]
O=C(Nc1ccccc1)c1ccc(S(=O)(=O)NCc2cccnc2)cc1 12.6 µM [activator, partial curve]
CCOC(=O)c1ccc(NC(=S)N(CCN2CCCCCC2)Cc2ccco2)cc1 28.2 µM [inhibitor, single point]
O=C(O)c1cc(-c2ccc(-c3c(-c4ccc5c(c4)OCO5)noc3-c3ccsc3)cc2)nc2ccccc12 22.4 µM [activator, single point]
Cc1ccc(C(=O)N/C(=C/c2cccs2)C(=O)NCCc2c[nH]c3ccccc23)cc1 35.5 µM [activator, single point]
Cc1ccc(-n2cc(C(=O)c3cc(Cl)ccc3O)cc(C#N)c2=O)cc1 12.6 µM [inhibitor, single point]
CCOC(=O)c1ccc(NC(=O)Cn2ncc(Cl)c(Cl)c2=O)cc1 31.6 µM [inhibitor, single point]
S=c1[nH]nc(Cc2ccc(Cl)cc2)o1 20 µM [inhibitor, single point]
COc1ccc(Oc2ncc(CN3CCN(c4ccccc4)CC3)s2)cc1 2.82 µM [activator, partial curve]
Cc1ccc(-c2csc(NC(=S)NC(=O)/C=C/c3ccco3)n2)cc1 20 µM [inhibitor, single point]
O=C(c1ccc(Cl)c(Cl)c1)N1CCC(=O)N(C(COCc2ccc(Cl)cc2)Cc2ccccc2)CC1 (centres undefined) 31.6 µM [activator, single point]
CC(=O)c1ccc(N2CCN(C(=O)Nc3ccc(C(C)C)cc3)CC2)cc1 20 µM [activator, single point]
CNc1ccc(Br)cc(C(=O)/C=C/c2cccc(OC)c2OC)c1=O 31.6 µM [inhibitor, single point]
COc1cccc(/C=N/Nc2nc(-c3cccnc3)nc3ccccc23)c1 10 µM [inhibitor, partial curve, poor fit]
CC(=O)Nc1ccccc1N(CC(O)Cn1c2ccccc2c2ccccc21)S(=O)(=O)c1ccc(C)cc1 (centres undefined) 12.6 µM [activator, single point]
COc1ccc(NC(=O)Cn2nnc(-c3ccccc3N)n2)cc1OC 0.224 µM [activator, single point]
Cc1ccc(N(CC(=O)N2CCN(Cc3ccccc3)CC2)S(C)(=O)=O)cc1C 6.31 µM [inhibitor, single point]
NC(=O)c1c(NC(=O)Cn2nc(C(=O)O)c3ccccc3c2=O)sc2c1CCCC2 1.41 µM [activator, full curve, poor fit]
COCCn1c(C)cc(C(=O)COC(=O)c2ccc3ncsc3c2)c1C 11.2 µM [activator, single point]
CC(C)C(=O)Nc1ccccc1C(=O)N/N=C/c1ccc([N+](=O)[O-])cc1 7.08 µM [activator, partial curve]
Cc1nnc(-c2cnn(-c3ccccc3)c2N)n1Cc1cccc(C(F)(F)F)c1 6.31 µM [inhibitor, partial curve, poor fit]
Cc1onc(-c2ccccc2)c1C(=O)Nc1nc2c(s1)CCCC2 25.1 µM [inhibitor, single point]
CC(C)CC(=O)N/C(N)=N/c1nc2ccccc2s1 11.2 µM [inhibitor, single point]

4 consecutive entries out of the list so far, for reference:
Potency, inconclusive:
O=C(c1ccc(Cl)c(Cl)c1)N1CCC(=O)N(C(COCc2ccc(Cl)cc2)Cc2ccccc2)CC1 (centres undefined) 31.6 µM [activator, single point]
CC(=O)c1ccc(N2CCN(C(=O)Nc3ccc(C(C)C)cc3)CC2)cc1 20 µM [activator, single point]
CNc1ccc(Br)cc(C(=O)/C=C/c2cccc(OC)c2OC)c1=O 31.6 µM [inhibitor, single point]
COc1cccc(/C=N/Nc2nc(-c3cccnc3)nc3ccccc23)c1 10 µM [inhibitor, partial curve, poor fit]
